Measurements published in PMC6892150, “Dimerization of MORC2 through its C-terminal coiled-coil domain enhances chromatin dynamics and promotes DNA repair” (Cell Communication and Signaling : CCS, 2019).

Experiments:
[1] = target: T1, microrchidia family CW-type zinc finger protein 2 (MORC2), full length, Flag- or HA-tagged (human) (UniProt Q9Y6X9); assay: co-IP; HEK293T co-transfected for 48 h; NP-40 lysis buffer (50 mM Tris-HCl pH 8, 150 mM NaCl, 0.5% NP-40, 10% glycerol, 2 mM MgCl2, 1 mM EDTA); anti-Flag or anti-HA magnetic beads overnight at 4 °C; immunoblotting
T1 sequence: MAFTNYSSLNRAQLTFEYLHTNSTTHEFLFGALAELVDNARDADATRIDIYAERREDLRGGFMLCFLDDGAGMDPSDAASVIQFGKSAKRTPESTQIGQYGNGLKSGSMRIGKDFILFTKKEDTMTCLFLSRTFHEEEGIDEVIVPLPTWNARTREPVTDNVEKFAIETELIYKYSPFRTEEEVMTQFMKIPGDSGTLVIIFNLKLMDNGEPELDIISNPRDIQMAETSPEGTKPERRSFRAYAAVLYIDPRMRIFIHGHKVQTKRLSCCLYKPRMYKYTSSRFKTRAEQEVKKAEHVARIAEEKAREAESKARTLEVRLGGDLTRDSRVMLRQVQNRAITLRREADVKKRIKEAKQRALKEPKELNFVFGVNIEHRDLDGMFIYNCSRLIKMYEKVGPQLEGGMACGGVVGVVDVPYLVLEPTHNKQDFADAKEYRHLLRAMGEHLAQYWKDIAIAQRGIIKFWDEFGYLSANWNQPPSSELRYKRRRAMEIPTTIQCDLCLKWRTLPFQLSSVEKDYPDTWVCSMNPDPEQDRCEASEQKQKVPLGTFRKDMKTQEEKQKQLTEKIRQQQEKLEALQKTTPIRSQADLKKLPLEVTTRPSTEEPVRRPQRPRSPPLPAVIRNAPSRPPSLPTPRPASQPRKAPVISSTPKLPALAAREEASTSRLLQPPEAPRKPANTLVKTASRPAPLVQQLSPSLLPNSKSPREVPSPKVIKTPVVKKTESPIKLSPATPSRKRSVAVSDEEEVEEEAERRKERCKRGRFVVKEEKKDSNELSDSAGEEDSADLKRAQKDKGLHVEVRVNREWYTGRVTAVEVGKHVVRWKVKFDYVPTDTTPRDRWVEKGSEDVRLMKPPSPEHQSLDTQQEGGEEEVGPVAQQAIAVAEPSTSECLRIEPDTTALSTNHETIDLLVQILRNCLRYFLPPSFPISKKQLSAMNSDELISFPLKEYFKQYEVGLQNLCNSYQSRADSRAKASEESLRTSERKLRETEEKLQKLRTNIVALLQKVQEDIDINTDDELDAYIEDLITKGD

[2] = target: HA-MORC2 ∆C82 (deletion of C-terminal 82 amino acid) (human) (UniProt Q9Y6X9); assay: as above

binding [1]: no binding
Molecule: HA-MORC2 ∆C82 (deletion of C-terminal 82 amino acid) (from UniProt Q9Y6X9) (domain or fragment)

binding [2]: no binding
B1: microrchidia family CW-type zinc finger protein 2 (MORC2), full length, Flag- or HA-tagged (natural protein, human, UniProt Q9Y6X9 1-1032, looked up)
chain: T1 sequence
notes: MORC2, human, full length (1032 residues by the printed numbering 950-1032 for the C-terminus); Flag-MORC2 and HA-MORC2 are two differently tagged copies of the same full-length protein; each chain carries one tag only; Written as one molecule because they are co-precipitated with each other to show self-association; Flag-MORC2 was the copy purified for cross-linking; HA-MORC2 was the copy …

Results are given in words; binding and its absence hold for the method and conditions named. In cells and extracts the contact can be indirect. Tags and fused reporters may be left off the sequences shown. Each block holds one molecule with its values, some of them ahead of it.
